Laboratory results: PubChem BioAssay AID1259254 (NCATS, 2017)
In all, the deposit lists about 59,000 reagents; shown is a part drawn at random. About 1,550 of all reagents (2.6%) count as active. 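G2 share is only a proxy for re-replication; each gene was hit by three separate siRNAs, and active genes were retested.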 A number with no mark means an inactive call. The numbers tell different reagents against one gene apart. Further read-outs or replicates are left out here. The record does not give: the amount of reagent.

Test: 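Finding genes that stop cells copying their DNA twice in one cycle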 (primary screen)
Cells: human HCT116 colorectal cancer cells
Knock-down reagent: single siRNA against human genes
Time to read-out: 3 days
Detection: 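Imaged Hoechst DNA stain sorts each cell into a cycle phase by DNA amount; per plate, G2 fraction set to 0% for non-targeting and 100% for GMNN siRNA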
Reading the numbers: G2 robust z-score and G2 cells, % of GMNN control: higher = more G2 cells, more excess DNA replication
Active means: 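Active siRNAs have a G2 robust z of 5 or more median absolute deviations over the median, which in these data means about 38% or higher of GMNN control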

target,siRNA no.,G2 robust z-score,"G2 cells, % of GMNN control"
NECTIN4,1,-0.113,2.17
NECTIN4,2,0.336,5.33
NECTIN4,3,1.22,11.6
PSMA3,1,4.64,35.6
PSMA3,2,3.53,27.8
PSMA3,3,1.04,10.3
ATP5IF1,1,-0.954,-3.74
ATP5IF1,2,-0.95,-3.71
ATP5IF1,3,-0.711,-2.04
OR1F1,1,4.98,38
OR1F1,2,-0.347,0.523
OR1F1,3,-0.31,0.785
PACSIN1,1,-0.674,-1.78
PACSIN1,2,-1.04,-4.32
PACSIN1,3,4.16,32.3
G3BP1,1,-0.463,-0.288
G3BP1,2,-0.636,-1.51
G3BP1,3,-1.64,-8.59
SHH,1,5.95 (active),44.8
SHH,2,-0.924,-3.54
SHH,3,2.87,23.2
OXER1,1,2.96,23.8
OXER1,2,2.61,21.3
OXER1,3,-0.507,-0.601
ZNF26,1,-0.502,-0.566
ZNF26,2,-0.17,1.77
ZNF26,3,-0.688,-1.88
SPATA31F2P,1,0.341,5.36
SPATA31F2P,2,-0.61,-1.32
SPATA31F2P,3,-0.58,-1.11
OR6C2,1,0.192,4.32
OR6C2,2,1.35,12.5
OR6C2,3,0.35,5.43
LOC729810 (retired record),1,-0.416,0.0401
LOC729810 (retired record),2,-0.662,-1.69
LOC729810 (retired record),3,-0.0996,2.27
OVOS2P,1,-0.813,-2.75
OVOS2P,2,-0.0747,2.44
OVOS2P,3,-0.048,2.63

Targets listed so far whose gene name starts with S or s:
target,siRNA no.,G2 robust z-score,"G2 cells, % of GMNN control"
SHH,1,5.95 (active),44.8
SHH,2,-0.924,-3.54
SHH,3,2.87,23.2
SPATA31F2P,1,0.341,5.36
SPATA31F2P,2,-0.61,-1.32
SPATA31F2P,3,-0.58,-1.11

The list goes on.
target,siRNA no.,G2 robust z-score,"G2 cells, % of GMNN control"
CD40,1,-1.13,-4.95
CD40,2,2.31,19.2
CD40,3,-0.487,-0.458
NHERF1,1,-0.468,-0.325
NHERF1,2,-0.157,1.86
NHERF1,3,-0.932,-3.59
CSGALNACT1,1,-0.938,-3.63
CSGALNACT1,2,0.923,9.46
CSGALNACT1,3,7.61 (active),56.5
SLC15A2,1,0.0259,3.15
SLC15A2,2,1.97,16.9
SLC15A2,3,6.29 (active),47.2
ULK4,1,0.117,3.79
ULK4,2,-1,-4.1
ULK4,3,0.301,5.09
ECHDC3,1,-1.12,-4.92
ECHDC3,2,1.07,10.5
ECHDC3,3,1.89,16.2
ZC3H18-DT,1,-0.0764,2.43
ZC3H18-DT,2,-1.46,-7.29
ZC3H18-DT,3,-0.77,-2.45
PCDHB3,1,-1.46,-7.3
PCDHB3,2,0.443,6.08
PCDHB3,3,1.66,14.7
BNIP2,1,0.941,9.59
BNIP2,2,5.17 (active),39.3
BNIP2,3,-0.978,-3.91
TNK1,1,-0.615,-1.36
TNK1,2,-0.348,0.517
TNK1,3,1.51,13.6
